Experimental findings from publication PMC7851395 (British Journal of Cancer, 2020) are described below.

Amino acid sequences for entries named in this document (tags omitted).
UniProt P40763: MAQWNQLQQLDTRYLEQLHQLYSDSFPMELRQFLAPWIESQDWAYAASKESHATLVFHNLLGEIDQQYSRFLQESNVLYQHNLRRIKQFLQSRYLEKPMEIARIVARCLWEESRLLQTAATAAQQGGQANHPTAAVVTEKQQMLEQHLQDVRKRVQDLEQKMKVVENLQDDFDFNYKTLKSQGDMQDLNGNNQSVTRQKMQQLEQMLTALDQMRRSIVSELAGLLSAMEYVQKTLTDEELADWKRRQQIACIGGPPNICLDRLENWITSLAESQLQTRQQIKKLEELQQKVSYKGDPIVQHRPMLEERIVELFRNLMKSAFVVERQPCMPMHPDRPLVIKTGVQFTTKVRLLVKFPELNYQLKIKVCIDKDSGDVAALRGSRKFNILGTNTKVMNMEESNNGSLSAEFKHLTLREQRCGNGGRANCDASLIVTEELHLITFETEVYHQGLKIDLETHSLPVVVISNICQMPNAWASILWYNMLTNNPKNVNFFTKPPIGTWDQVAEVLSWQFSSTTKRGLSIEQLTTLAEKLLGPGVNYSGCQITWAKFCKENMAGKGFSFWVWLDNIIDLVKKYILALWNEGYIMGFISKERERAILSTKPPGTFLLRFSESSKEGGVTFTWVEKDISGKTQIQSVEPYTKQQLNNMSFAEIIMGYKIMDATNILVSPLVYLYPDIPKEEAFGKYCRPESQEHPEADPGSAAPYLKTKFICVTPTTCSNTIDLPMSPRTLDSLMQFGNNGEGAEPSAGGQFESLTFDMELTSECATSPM
UniProt P50750: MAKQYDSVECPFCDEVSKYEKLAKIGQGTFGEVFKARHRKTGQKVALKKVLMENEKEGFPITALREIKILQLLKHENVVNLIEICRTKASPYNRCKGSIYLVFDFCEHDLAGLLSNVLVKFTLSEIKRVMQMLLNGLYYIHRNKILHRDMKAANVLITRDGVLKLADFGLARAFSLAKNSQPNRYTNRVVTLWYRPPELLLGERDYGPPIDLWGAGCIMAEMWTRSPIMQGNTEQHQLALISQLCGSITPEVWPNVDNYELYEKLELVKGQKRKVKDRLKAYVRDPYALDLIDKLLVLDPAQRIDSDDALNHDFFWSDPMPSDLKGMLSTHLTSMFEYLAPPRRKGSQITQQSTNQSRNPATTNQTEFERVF

These are yes or no findings as the source states them, for the method shown. In cells and extracts the contact can be indirect. Some results given as binding are weak or reduced against the parent protein; the word gives no strength.

The assay concerns the target STAT3 (human (endogenous in H460)) (UniProt P40763). The assay is described as follows: co-IP; 1 mg whole-cell extracts of H460 cells stimulated with IL6 (25 ng/ml) for 30 min or left untreated; polyclonal antibodies against CDK9, STAT3 or nonspecific antibodies, 4 °C overnight; protein A/G agarose beads; washed with cold PBS; endogenous proteins, no transfection.

For the substance “Cyclin-dependent kinase 9 (from UniProt P50750 1-372)”, the binding entry was “binds”.
